These results are taken from patent US20110117086A1.

For test [1], the target named is T1, Human amidated gastrin I (G-17) (human).
T1 sequence (peptide, C-terminal amide): QGPWLEEEEEAYGWMDF
Nature of the test: ELISA on coated antigen, OD 492 nm (axis untitled). A general note: In an ELISA, binding on a coated surface is turned into a signal by an enzyme label.

In test [2] the target is T2, C-terminal flanking peptide (CTFP) (human).
T2 sequence (peptide): SAEDEN
Nature of the test: ELISA on coated antigen, OD 492 nm (axis untitled).

Test [3] deals with T3, Glycine-extended gastrin 17 (G17-Gly) (human).
T3 sequence (peptide): QGPWLEEEEEAYGWMDFG
Nature of the test: ELISA on coated antigen, OD 492 nm (axis untitled).

Test [4] addresses T1, Human amidated gastrin I (G-17) (human). Nature of the test: ELISA, peptide coated.
In test [5] the target is T2, C-terminal flanking peptide (CTFP) (human). Briefly: ELISA, peptide coated.
The target in test [6] is T3, Glycine-extended gastrin 17 (G17-Gly) (human). Briefly: ELISA, peptide coated.
Test [7] has as its target T1, Human amidated gastrin I (G-17) (human). Nature of the test: ELISA on coated antigen, DO 492nm, n=2.
The target in test [8] is T2, C-terminal flanking peptide (CTFP) (human). Nature of the test: ELISA on coated antigen, DO 492nm, n=2.
Test [9] addresses T3, Glycine-extended gastrin 17 (G17-Gly) (human). Nature of the test: ELISA on coated antigen, DO 492nm, n=2.
Test [10] addresses T1, Human amidated gastrin I (G-17) (human). Briefly: condition: antibody 3 ng/ml (expt 1) and 1 ng/mL (expt 2); peptide 50 and 250 ng; ELISA, peptide coated.
The target in test [11] is T2, C-terminal flanking peptide (CTFP) (human). Described as above.
In test [12] the target is T3, Glycine-extended gastrin 17 (G17-Gly) (human). The description is as above.
Test [13] concerns the target T1, Human amidated gastrin I (G-17) (human). Nature of the test: condition: antibody 0.3 ng/mL; peptide 50 and 250 ng; ELISA, peptide coated.
For test [14], the target named is T2, C-terminal flanking peptide (CTFP) (human). The description is as above.
Test [15] has as its target T3, Glycine-extended gastrin 17 (G17-Gly) (human). Described as above.

These are yes or no findings as the source states them, for the method shown.

B1: Anti-hPG MAb 19 (antibody, V domains shown)
VH: DVQLQESGPGLVKPSQSLSLTCTVTGYSITSDYAWNWIRQFPGNKLEWMGYISFSGYTSYNPSLKSRISVTRDTSRNQFFLQLTSVTTEDTATYYCAREVNYGDSYHFDYWGQGTIVTVSS
VL: QLALTQSSSASFSLGASAKLTCTLSSQHRTYTIEWYQQQSLKPPKYVMEVKKDGSHSTGHGIPDRFSGSSSGADRYLSISNIQPEDEAIYICGVGDAIKGQSVFVFGGGTKVTVL
B1: the binding entry was “no binding (tested: 250 ng coated (MAb 1 ng/ml))” in [1]; “no binding (tested: 250 ng coated (MAb 1 ng/ml))” in test [2]; “no binding (tested: 250 ng coated (MAb 1 ng/ml))” in [3]; “no binding (tested: antibody 1 ng/mL; peptide 50 and 250 ng)” in [4]; “no binding (tested: antibody 1 ng/mL; peptide 50 and 250 ng)” in test [5]; “no binding (tested: antibody 1 ng/mL; peptide 50 and 250 ng)” in test [6].

B2: Anti-hPG MAb 3 (antibody, V domains shown)
VH: EVQLQQSGTVLARPGASVKMSCKASGYIFTSYWVHWVKQRPGQGLEWIGGFYPGNSDSRYNQKFKGKATLTAVTSASTAYMDLSSLTNEDSAVYFCTRRDSPQYWGQGTTLTVSS
VL: DVLMTQTPLSLPVSLGDQASISCRSSQSIVHSNGNTYLEWYLQKPGQSPKLLIYKVSNRFSGVPDRFSGSGSGTDFTLKISRLEAEDLGVYYCFQGSHVPFTFGGGTKLEIK
B2: the binding entry is listed as “no binding (tested: 250 ng coated (MAb 1 ng/ml))” in [1]; “no binding (tested: 250 ng coated (MAb 1 ng/ml))” in test [2]; “no binding (tested: 250 ng coated (MAb 1 ng/ml))” in test [3]; “no binding (tested: 250 ng coated (MAb 3 at 3 ng/ml))” in [7]; “no binding (tested: 250 ng coated (MAb 3 at 3 ng/ml))” in test [8]; “no binding (tested: 250 ng coated (MAb 3 at 3 ng/ml))” in test [9]. In addition, the binding entry in test [10], in [11] and in test [12] was “no binding” in each case.

B3: Anti-hPG MAb 8 (antibody, V domains shown)
VH: EVQLVESGGGLVKPGGSLKLSCAASGFTFTTYAMSWVRQTPEKRLEWVATISSGGTYTYYPDSVKGRFTISRDNAKNALYLQMSSLRSEDTAMYYCATQGNYSLDFWGQGTSLTVSS
VL: DIVMTQAASSNPVTLGTSASISCRSSKSLRHTKGITFLYWYLQKPGQSPQLLIYQMSNLASGVPDRFSSSGSGTDFTLRISRVEAEDLGVYYCAQNLELPLTFGAGTKLELK
Take B3: the binding result in [1] was “no binding (tested: 250 ng coated (MAb 0,3 ng/ml))”; in test [2], “no binding (tested: 250 ng coated (MAb 0,3 ng/ml))”; in test [3], “no binding (tested: 250 ng coated (MAb 0,3 ng/ml))”; in test [13], “no binding”; in [14], “no binding”; in test [15], “no binding”.

B4: Anti-hPG MAb 4 (antibody, V domains shown)
VH: QVQLQQSGAELMKPGASVKISCKATGYTFSSSWIEWLKQRPGHGLEWIGEFLPGSGSTDYNEKFKGKATFTADTSSDTAYMLLSSLTSEDSAVYYCATDGNYDWFAYWGQGTLVTVSA
VL: DLVMTQTPLSLPVSLGDQASISCRSSQSLVHSSGVTYLHWYLQKPGQSPKLLIYKVSNRFSGVPDRFSGSGSGTDFTLKISRVEAEDLGVYFCSQSTHVPPTFGSGTKLEIK
For B4, the binding entry was “no binding (tested: 250 ng coated (MAb 4 at 1 µg/ml))” in test [7]; “no binding (tested: 250 ng coated (MAb 4 at 1 µg/ml))” in test [8]; “no binding (tested: 250 ng coated (MAb 4 at 1 µg/ml))” in test [9]; “no binding (tested: antibody 1 µg/ml; peptide 50 and 250 ng)” in test [4]; “no binding (tested: antibody 1 µg/ml; peptide 50 and 250 ng)” in test [5]; “no binding (tested: antibody 1 µg/ml; peptide 50 and 250 ng)” in [6].
